Data published in patent US20190040004A1, “NEW COMPOUNDS FOR THE TREATMENT AND/OR PREVENTION OF PARASITIC DISEASES AND METHOD OF PRODUCTION OF THEREOF” (INSTITUT DE RECHERCHE POUR LE DEVELOPPEMENT (I.R.D.), priority 2013, published 2019).
pIC50: −log10 of the molar value.

What was measured:
[1] = test system: HDAC activity from HELA nuclear extract; settings: read-out: HDAC inhibitory activity of SAHA (literature); Jiao et al., Eur. J. Med. Chem. 2009; cited from earlier work
[2] = test system: deacetylase activity in total protein extracts of T. gondii; assay: Deacetylase activity in total protein extracts of T. gondii; format: biochemical; settings: 125 nM
[3] = test system: Leishmania infantum luciferase expressing strain (MHOM/MA/ITMAP269); assay: microbe, parasite or virus in culture; format: cell-based; settings: antiparasitic activity, read-out: L. infantum IC50
Protocol: Leishmanicidal activity was determined according to a previously published protocol that used Leishmania infantum luciferase expressing strain (MHOM/MA/ITMAP269) (Sereno D & Lemesre J L, Antimicrob Agents Chemother 1997, 41(5): 972-976).
Antiparasitic activity of a compound is represented by ICo50, which is calculated with Prism software (Prism4 for MacOSX Version 5.0b, December 2008). The cytoxicity of a compound against the host cells of L. infantum and T. gondii, such as THP-1 or HFF cells, was determined with a MTT assay, according to previously described protocol (Sereno et al., Antimicrob Agents Chemother. 2001, 45(4):1168-73). THP-1 is derived from the peripheral blood ofa human with acute monocytic leukemia.

Structure (SMILES): O=C(CCCCCCC(=O)Nc1ccccc1)NO [SAHA, suberoylanilide hydroxamic acid, reference compound]
- pIC50 [1]: 5.89
- inhibition of T. gondii deacetylase activity [2]: 22%
- pIC50 [3]: < 4.00
